No constants are given. Whether binding was seen depends on the method and setting. Binding seen in cells or lysates may run through a third protein. Some binding calls cover weakened binding; strength is not graded here.
Molecular target: T1, chemokine receptor CCR10 (mouse (endogenous in db/db mouse skin wounds)) (UniProt Q9JL21)
T1 sequence: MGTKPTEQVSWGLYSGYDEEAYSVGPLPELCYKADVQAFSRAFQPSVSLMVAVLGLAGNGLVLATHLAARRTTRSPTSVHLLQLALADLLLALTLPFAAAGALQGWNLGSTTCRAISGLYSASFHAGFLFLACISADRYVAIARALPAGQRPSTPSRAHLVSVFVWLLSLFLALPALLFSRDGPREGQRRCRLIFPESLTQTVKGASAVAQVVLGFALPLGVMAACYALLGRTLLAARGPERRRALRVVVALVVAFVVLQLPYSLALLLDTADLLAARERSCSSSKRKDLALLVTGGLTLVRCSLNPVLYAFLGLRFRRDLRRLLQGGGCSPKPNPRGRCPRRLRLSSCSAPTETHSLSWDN
Test: co-IP; anti-CCR10 Ab added to lysates (2% ODG, Tris buffer) of day 10 dorsal wounds of db/db mice treated with 1 ug anti-CCL28 Ab or control IgG; Western blotting with anti-eNOS Ab and anti-CCR10 Ab

binding: binds
B1: endothelial nitric oxide synthase (eNOS) (enzyme, UniProt P70313 1-1202)
chain: MGNLKSVGQEPGPPCGLGLGLGLGLCGKQGPASPAPEPSQAPAPPSPTRPAPDHSPPLTRPPDGPRFPRVKNWEVGSITYDTLSAQAQQDGPCTSRRCLGSLVFPRKLQSRPTQGPSPTEQLLGQARDFINQYYNSIKRSGSQAHEQRLQEVEAEVAATGTYQLRESELVFGAKQAWRNAPRCVGRIQWGKLQVFDARDCRTAQEMFTYICNHIKYATNRGNLRSAITVFPQRCPGRGDFRIWNSQLIRYAGYRQQDGSVRGDPANVEITELCIQHGWTPGNGRFDVLPLLLQAPDEPPELFTLPPEMVLEVPLEHPTLEWFAALGLRWYALPAVSNMLLEIGGLEFPAAPFSGWYMSSEIGMRDLCDPHRYNILEDVAVCMDLDTRTTSSLWKDKAAVEINVAVLHSYQLAKVTIVDHHAATASFMKHLENEQKARGGCPADWAWIVPPISGSLTPVFHQEMVNYFLSPAFRYQPDPWKGSAAKGAGITRKKTFKEVANAVKISASLMGTVMAKRVKATILYGSETGRAQSYAQQLGRLFRKAFDPRVLCMDEYDVVSLEHEALVLVVTSTFGNGDPPENGESFAAALMEMSGPYNSSPRPEQHKSYKIRFNSVSCSDPLVSSWRRKRKESSNTDSAGALGTLRFCVFGLGSRAYPHFCAFARAVDTRLEELGGERLLQLGQGDELCGQEEAFRGWAQAAFQAACETFCVGEDAKAAARDIFSPKRSWKRQRYRLSTQAESLQLLPGLTHVHRRKMFQATILSVENLQSSKSTRATILVRLDTGGQEGLQYQPGDHIGVCPPNRPGLVEALLSRVEDPPPSTEPVAVEQLEKGSPGGPPPGWVRDPRLPPCTLRQALTYFLDITSPPSPRLLRLLSTLAEESSEQQELEALSQDPRRYEEWKWFSCPTLLEVLEQFPSVALPAPLILTQLPLLQPRYYSVSSAPSAHPGEIHLTIAVLAYRTQDGLGPLHYGVCSTWMSQLKAGDPVPCFIRGAPSFRLPPDPNLPCILVGPGTGIAPFRGFWQDRLHDIEIKGLQPAPMTLVFGCRCSQLDHLYRDEVLDAQQRGVFGQVLTAFSRDPGSPKTYVQDLLRTELAAEVHRVLCLEQGHMFVCGDVTMATSVLQTVQRILATEGGMELDEAGDVIGVLRDQQRYHEDIFGLTLRTQEVTSRIRTQSFSLQERQLRGAVPWSFDPPGPEIPGS
